Here are results for one molecule from publication PMC10167378.

The chains behind the UniProt entries cited, without tags or fusion partners.
UniProt P63018: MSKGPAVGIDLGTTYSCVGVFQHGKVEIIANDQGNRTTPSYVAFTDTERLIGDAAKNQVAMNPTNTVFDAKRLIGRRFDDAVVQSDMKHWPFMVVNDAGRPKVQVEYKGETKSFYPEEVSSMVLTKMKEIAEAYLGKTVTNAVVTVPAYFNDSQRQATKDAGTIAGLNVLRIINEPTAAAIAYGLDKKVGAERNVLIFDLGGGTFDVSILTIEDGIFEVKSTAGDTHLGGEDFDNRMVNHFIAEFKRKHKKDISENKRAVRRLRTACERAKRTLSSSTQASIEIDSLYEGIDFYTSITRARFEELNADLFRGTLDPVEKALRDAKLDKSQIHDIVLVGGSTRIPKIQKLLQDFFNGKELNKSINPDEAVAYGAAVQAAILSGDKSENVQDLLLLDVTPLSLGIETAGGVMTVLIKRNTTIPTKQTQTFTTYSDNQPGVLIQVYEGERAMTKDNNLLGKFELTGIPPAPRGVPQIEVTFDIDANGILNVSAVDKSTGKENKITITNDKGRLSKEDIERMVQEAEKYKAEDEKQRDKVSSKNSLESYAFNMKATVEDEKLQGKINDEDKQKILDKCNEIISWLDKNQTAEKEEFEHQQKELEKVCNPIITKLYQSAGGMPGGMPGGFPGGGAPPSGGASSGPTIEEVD

The target in the assay is HSC70 (UniProt P63018). As to the kind of experiment: co-IP; IP of HSC70, blotted for APAF1, with Cdyl2-60aa overexpression; cells not named (Supplementary Fig. 4h).

These are yes or no findings as the source states them, for the method shown. In cells and extracts the contact can be indirect. Some entries that bind do so weakly or less than the wild type.

B1: apoptotic protease activating factor-1 (APAF1) (protein, UniProt Q9EPV5 1-1249)
chain: MDAKARNCLLQHKEALEKDIKTSYIMDHMISNGVLTVVEEEKVKSQATQYQRAAALIKMILNKDNYAYISFYNALLHEGYKDLAGLLHSGLPLVSSSSGKDTDGGNTSFVRTVLCEGGVPQRPVIFVTRKKLVSAIQQKLWKLNGEPGWVTIYGMAGCGKSVLAAEAVRDHALLEGCFSGGVHWVSIGKQDKSGLLMKLQNLCTRLGQEESFSQRLPLNIEEAKDRLRVLMLRKHPRSLLILDDVWDPWVLKAFDNQCQILLTTRDKSVTDSVMGPKYVIPVESGLGKEKGLEILSLFVNMKKEDLPVEAHSIIKECKGSPLVVSLVGALLRDFPNRWAYYLRQLQNKQFKRIRKSSSYDYEALDEAMSISVEMLREDIKDYYTDLSILQKDVKVPTKVLCVLWDLETEEVEDILQEFVNKSLLFCNRNGKSFCYYLHDLQVDFLTEKNRSQLQDLHRKMVTQFQRYHQPHTLSPGQEDCMYWYNFLAYHMASAGMHKELCALMFSLDWIKAKTELVGPAHLIHEFVEYRHILDEKDCAVCENFQEFLSLNGHLLGRQPFPNIVQLGLCEPETSEVYQQAKLQAKQEVDTGRLYLEWINKKTIKNLSRLVVRPHTDAVYHACFSQDGQRIASCGADKTLQVFKAETGEKLLDIKAHEDEVLCCAFSSDDSYIATCSVDKKVKIWDSGTGKLVHTYEEHSEQVNCCHFTNKSNHLLLATGSNDSFLKLWDLNQKECRNTMFGHTNSVTHCRFSPDDELLASCSADGTLKLWDVRSANEKKSINVKRFFLSSEDPPEDVEVIVKCCSWSADGDRIIVAAKNKVLLLDIHTSGLLTEIHTGHHSTIQYCDFSPYDHLAVIALSQYCVELWNIDSRVKVADCRGHLSWVHGVMFSPDGSSFLTASDDQTIRVWETRKVCKNSAIVLKQEIDVVFQENEMMVLAVDNIRGLQLIAGKTGQIDYLPEAQVSCCCLSPHLEYVAFGDEEGAIKIIELPNNRVFSSGIGHKKAVRHIQFTADGKTLISSSEDSVIQVWNWQTEEYVFLQAHQETVKDFRLLRDSRLLSWSFDGTVKVWNVITGRIERDFTCHQGTVLSCAISSDATKFSSTSADKTAKIWSFELPSPLHELKGHNSCVRCSAFSLDGILLATGDDNGEIRIWNVSDGQLLHLCAPISIEEGTATHGGWVTDVCFSPDRKMLVSAGGYLKWWNVVTGESSQTFYTNGTNLKKIHVSPDFRTYVTVDNLGILYILQVLE
Consider B1, for which the binding entry is recorded as “binds”.
